Library screen at single concentrations

The values are deposited in ChEMBL (CHEMBL3988442, “University of Dundee, Small-Polar-MMV Screening Library” (2021)).

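Whole-parasite assay of Trypanosoma brucei over 72 hours; the read-out is not stated. Compounds at 30 µM. Direction is inferred from retests: higher values go with stronger inhibition. Values scatter widely below zero; nearly all retest evidence comes from the higher of the two concentrations used. Size under these conditions: about 64,000 compounds, about 940 of them at 50% or above in at least one test.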

Results are given as percent effect.
The record does not define 0% and 100%; most values in the screen are far below 50% and negative numbers occur (in some assays of this library far below -100).
The compounds are a random part of those screened.

structure,percent effect
O=C(O)C(F)(F)F.[H][C@@]12CCN(Cc3nccs3)[C@]1([H])C[C@@H](C(=O)NCC1CCOCC1)O2,-69.82
CCN(CC)C(=O)c1ccc(Cl)c(NC(=O)c2csnn2)c1,-13.53
CN(C)c1ncc(I)c(C2CCCN2S(C)(=O)=O)n1 (centres undefined),0.1578
CC(=O)c1ccc(-n2c(C)cn(CCC#N)c2=O)cc1,-56.52
CC(c1nc(C2CC2)no1)N(C)Cc1cccc(F)c1 (centres undefined),-1.784
COCCC(=O)N1CCC(Nc2ncc(Br)cn2)CC1,13.98
Cc1cc(C(=O)N2CCCC(c3nccn3C)C2)cc(S(N)(=O)=O)c1C (centres undefined),-21.22
CNC(=O)NCC1CCC2(CCN(C(=O)c3ccccc3)CC2)CO1 (centres undefined),-78.63
Cn1ccnc1CN1CCc2ncnc(N3CCCC(C#N)C3)c2CC1 (centres undefined),-9.351
CCn1ccnc1C1CCCN(C(=O)c2sc(C)nc2C)C1 (centres undefined),-29.7
Cc1cc2ccncc2n1CC1(O)CCN(C(=O)c2ccncc2)CC1,-7.647
O=C(COC1CCCC1)N1CCCC1c1noc(C2CC2)n1 (centres undefined),-18.12
COc1ccc2c(c1)OCC(C(=O)NCc1ncc3c(n1)CCC3)C2 (centres undefined),-47.75
COc1ncnc2c1CCN(Cc1nccs1)CC2.O=C(O)C(F)(F)F,-8.224
Cc1csc(-c2cccc(NC(=O)N3CCOCC3)c2)n1,6.751
COc1ccc(NC(C)C(=O)N2CCN(c3ccccc3)CC2)cn1 (centres undefined),-23.12
N#Cc1cccnc1OC1CCN(C(=O)c2cc(C3CC3)on2)CC1,8.284
CCN(CC)Cc1nc(Cc2cccc(C(F)(F)F)c2)no1,1.631
CC(C)[C@@H]1CN(C(=O)C2(c3ccccc3)CC2)C[C@H]1C(=O)O,-6.746
Cc1cc(-n2cncn2)ccc1C(=O)N(C)CC(F)(F)C(F)(F)F,-57.59
Fc1cnc(N2CCCC3(CN(Cc4cccs4)CCO3)C2)nc1.O=C(O)C(F)(F)F (centres undefined),-14.85
CCCNC(=O)CN1CCC(NCc2c(C)nn(C)c2OC)CC1,-29.24
CN(CC(=O)NCCC#N)C(c1ccccc1)c1ccc(F)cc1 (centres undefined),-30.74
[H][C@@]12COC[C@]1([H])[C@@H](OCc1cccnc1)CN2C(=O)c1ccc(C)nc1,-18.74
CCCC(=O)Nc1cnn(CC(=O)Nc2ccc(SC)cc2)c1,-119.8
Cc1nc(C(C)(C)NC(=O)Nc2ccccc2)no1,-59.47
CN(C)Cc1ccc(C2CCCCN2C(=O)c2cccc(CO)n2)cc1 (centres undefined),-1.225
Cc1cc(C2CCCN(C(=O)COc3ccc(F)cc3)C2)n[nH]1 (centres undefined),8.235
CN(C)Cc1ccnc(NS(=O)(=O)Cc2cccc(F)c2)c1,-1.188
[H][C@]12CC[C@]([H])(CN(S(=O)(=O)N(C)C)C1)N(Cc1csc(C(C)=O)c1)C2,79.15
CNC(=O)C1CCN(c2cc(C3CCNCC3)nc(C)n2)C1 (centres undefined),-7.003
CC1C(=O)Nc2cccnc2N1S(=O)(=O)c1cc(F)cc(F)c1 (centres undefined),-18.94
CN1CCOC(C(=O)Nc2nc(-c3ccc(Cl)cc3)n[nH]2)C1 (centres undefined),-48.05
CN(C)C(=O)COCC1CN(S(C)(=O)=O)Cc2ncn(C)c21.O=C(O)C(F)(F)F (centres undefined),-29.75
CSC(C)(C)CNC(=O)NC1CCN(CC(F)F)CC1,-19.67
Cc1cc(C(=O)NCCc2nc3c(s2)CCCC3)n(C)n1,-23.96
Cc1csc(CNC(=O)NCC(O)c2ccc(F)cc2)n1 (centres undefined),-24.06
O=C1CCCN1CC1CCCCN1C(=O)Nc1cccnc1 (centres undefined),-8.059
CCOc1ccccc1C1CCCN1.Cl (centres undefined),20.18
OCCN(Cc1cccnc1)c1ccc(Cl)cn1,-1.902
O=C(c1nc(=O)[nH][nH]1)N1CCCN(CC2CCCCC2)CC1,-6.925
O=C(O)C(F)(F)F.[H][C@@]12CN(Cc3ccc(OC)cc3)C[C@]1([H])OCCN2C,10.2
Cc1cccc2cc(CO)c(N3Cc4cnc(C(C)(C)C)nc4C3)nc12,-5.375
Cc1cc(NC(=O)NCc2ccccn2)n(C)n1,2.177
[H][C@@]12CS(=O)(=O)C[C@]1([H])N(C(=O)c1ccc3oc(C)cc3c1)CCN2CCO,-34.88
CC1(C)CN(CC(=O)NCc2ccccc2F)C[C@]1(C)O,-5.05
Cc1cc(-c2cnc(N3CCNC(=O)C3)nc2-c2cccnc2C)on1,16.74
O=C(NCc1nncn1C1CC1)C1(c2ccccc2)CCOCC1,-24.94
CC(C)(O)CSCCNC(=O)c1cc(F)ccc1F,-47.66
CN1CCN(Cc2nnc(C3CCN(CC4CC4)CC3)n2C)CC1,-74.39
CC(NC(=O)C1CCN(C(=O)C2CC2)CC1)c1nncn1C(C)C (centres undefined),0.8571
CCS(=O)(=O)N1CCc2ncnc(OC)c2CC1,-26.28
CCN1CCNC(=O)C12CCN(C(=O)Cc1ccsc1)CC2,-15.34
Cc1ccc(CN2CCC3(CCCN3C(=O)C(C)C)CC2)o1,-9.055
CS(=O)(=O)c1cn[nH]c1C1CCCCN1C(=O)c1cnccn1 (centres undefined),-15.79
Cc1ncc(CN(C)C(=O)Nc2cccc(C(=O)N3CCOCC3)c2)s1,-36.86
CN(c1ccc(CNc2ccc(Cl)cn2)cc1)S(C)(=O)=O,-3.965
O=C(c1ccccn1)N1CCC2(CC1)COC(COc1cccnc1)C2 (centres undefined),52.19
CC1c2ncc(COc3cccnc3)n2CCN1Cc1cnn(C)c1.O=C(O)C(F)(F)F.O=C(O)C(F)(F)F (centres undefined),2.727
CC(C)CC(CO)NC(=O)NCc1csc(N(C)C)n1 (centres undefined),21.95
COCCCNCc1cc(O)c2cc(C)cc(C)c2n1,-7.527
CC(C)Cc1nc(OCC(N)=O)c(C#N)c2c1CCCC2,-29.84
Cc1ccc2c(c1)SCC(=O)N2CC(=O)N1CCCC1c1nccs1 (centres undefined),-17.29
Cc1cccc(CN2CCCn3c(nnc3Cn3cccn3)C2)n1.O=C(O)C(F)(F)F,-34.05
CCCN1CCC2(C1)c1ccccc1S(=O)(=O)N2C.O=C(O)C(F)(F)F (centres undefined),-29.55
O=C(O)C(F)(F)F.[H][C@]12CCN(Cc3nccs3)[C@@]1([H])C[C@@H](C(=O)N1CCOCC1)O2,-4.069
Cc1nc(C)n(CC2CCCN2CC(=O)N(C)Cc2ccc(C)o2)n1 (centres undefined),-26.19
Cc1nn(CCNC(C)Cn2cncn2)c(C)c1Cl (centres undefined),-26.46
O=C(Nc1cccc(C(F)(F)F)c1)C1CC(=O)N(Cc2ccccn2)C1 (centres undefined),2.96
O=C(CCc1nc(Cl)n[nH]1)N1C[C@@H](CN2CCCCC2)[C@@H](CO)C1,4.396
COCCn1ccnc1C1CCN(C(=O)C(O)c2ccc(F)cc2)CC1 (centres undefined),-9.595
Cc1cnn(CC2CCCN2Cc2noc(CC(C)C)n2)c1 (centres undefined),4.936
FC(F)(F)c1ccnc(N2CCC(c3nccn3CC3CC3)CC2)n1,-51.23
Cc1cc2c(=O)n3c(nc2s1)CCN(C(=O)c1sc(C)nc1C)CC3,4.228
[H][C@@]12COC[C@@H](C(=O)NC)[C@]1([H])CN(C(=O)c1ccc(C)c(F)c1)C2,-24.61
COc1ccc(F)c(CN2CCCC(O)(CNCc3ccon3)C2=O)c1 (centres undefined),-42.78
CCN(CCO)C(=O)C1CCC(=O)N(CCc2cccc(F)c2)C1 (centres undefined),1.383
O=C(CCc1ccccn1)N1CCSC2(CCCCC2)C1,-30.8
CCN1CCC(CNC(=O)C2(c3ccc(F)cc3)CC2)C1 (centres undefined),19.75
CC(C)OCCS(=O)(=O)N1CCN(Cc2cccn2C)CC1,-9.847
Cc1ccc(CN(C(=O)NCC2CCCO2)C2CC2)o1 (centres undefined),-17.51
Cc1cc(C(=O)N2CCc3nc4sc(C)cc4c(=O)n3CC2)on1,-9.718
Fc1ccc(CNCc2nnc3n2CC(C(F)(F)F)CC3)cc1 (centres undefined),-35.58
O=C(O)C(F)(F)F.[H][C@]12CCC[C@@H](CN3CCOCC3)[C@@]1([H])CN(c1cc(OC)ncn1)C2,16.71

Once more, the final 5:

structure	percent effect
CC(C)OCCS(=O)(=O)N1CCN(Cc2cccn2C)CC1	-9.847
Cc1ccc(CN(C(=O)NCC2CCCO2)C2CC2)o1 (centres undefined)	-17.51
Cc1cc(C(=O)N2CCc3nc4sc(C)cc4c(=O)n3CC2)on1	-9.718
Fc1ccc(CNCc2nnc3n2CC(C(F)(F)F)CC3)cc1 (centres undefined)	-35.58
O=C(O)C(F)(F)F.[H][C@]12CCC[C@@H](CN3CCOCC3)[C@@]1([H])CN(c1cc(OC)ncn1)C2	16.71